{"source": "PubChem BioAssay AID652259, Drosophila RNAi Screening Center, 2013", "screen": "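Knock-downs that push a Wingless-driven reporter up or down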 (primary screen)", "system": "Drosophila clone 8 imaginal disc epithelial cells", "knock-down reagent": "long dsRNA against Drosophila genes", "challenge": "pathway stimulated by co-transfected Wingless expression plasmid", "measurement": "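Firefly luciferase from a tcf-site Wingless reporter, measured alongside co-transfected Renilla luciferase that tracks transfection; pathway stimulated by a Wingless plasmid; the firefly-to-Renilla ratio is not deposited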", "reading the numbers": "firefly reporter light: higher = more Wg reporter light, before normalisation; Renilla control light: higher = more transfected or surviving cells", "call rule": "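Strong candidates differ from their plate mean by at least two out of four per-plate statistical tests; weak candidates meet just one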", "calls": "active = candidate regulator (raises or lowers reporter); inactive = not a candidate", "note": "The screen tested about 22,000 reagents; this is a random part of those with a known target gene and a result. Over the whole deposit, 233 (1.1%) got an active call. 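Light values are raw, unnormalised plate reads; the ratio scores behind the reporter calls were not deposited.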 Unmarked entries are inactive. Names joined by + are all predicted targets of the reagent. The record does not give: the amount of reagent, the time to read-out, the dose of the treatment."}
{"gene":"rau","dsRNA":"DRSC03125","firefly reporter light, replicate 1":5248,"Renilla control light, replicate 1":3178}
{"gene":"CG1116","dsRNA":"DRSC12166","firefly reporter light, replicate 1":10443,"Renilla control light, replicate 1":2184}
{"gene":"CG14966","dsRNA":"DRSC08425","firefly reporter light, replicate 1":7634,"Renilla control light, replicate 1":3269}
{"gene":"Pi4KIIIalpha","dsRNA":"DRSC18655","firefly reporter light, replicate 1":22715,"Renilla control light, replicate 1":14661}
{"gene":"CCAP","dsRNA":"DRSC15674","firefly reporter light, replicate 1":16845,"Renilla control light, replicate 1":9929}
{"gene":"CG17618 (retired record) + CG45049","dsRNA":"DRSC16163","firefly reporter light, replicate 1":23312,"Renilla control light, replicate 1":18571}
{"gene":"CG17618 (retired record) + CG45049","dsRNA":"DRSC22054","firefly reporter light, replicate 1":3.28e5,"firefly reporter light, replicate 2":3.94e5,"Renilla control light, replicate 1":51294,"Renilla control light, replicate 2":62118}
{"gene":"CG6495","dsRNA":"DRSC01993","firefly reporter light, replicate 1":6193,"Renilla control light, replicate 1":2017}
{"gene":"mbt","dsRNA":"DRSC20348","firefly reporter light, replicate 1":15808,"Renilla control light, replicate 1":5202}
{"gene":"Cyp4d21","dsRNA":"DRSC03305","firefly reporter light, replicate 1":7613,"Renilla control light, replicate 1":3314}
{"gene":"CG42869 + Sfp93F","dsRNA":"DRSC13505","firefly reporter light, replicate 1":3608,"Renilla control light, replicate 1":336}
{"gene":"CG1924","dsRNA":"DRSC19823","firefly reporter light, replicate 1":23568,"Renilla control light, replicate 1":11344}
{"gene":"Tbc1d8-9","dsRNA":"DRSC11820","firefly reporter light, replicate 1":5137,"Renilla control light, replicate 1":915}

3 entries from above, ordered by “Renilla control light, replicate 1”, highest first:
{"gene":"CG17618 (retired record) + CG45049","dsRNA":"DRSC22054","firefly reporter light, replicate 1":3.28e5,"firefly reporter light, replicate 2":3.94e5,"Renilla control light, replicate 1":51294,"Renilla control light, replicate 2":62118}
{"gene":"mbt","dsRNA":"DRSC20348","firefly reporter light, replicate 1":15808,"Renilla control light, replicate 1":5202}
{"gene":"CG6495","dsRNA":"DRSC01993","firefly reporter light, replicate 1":6193,"Renilla control light, replicate 1":2017}

The results go on.
{"gene":"CG13192","dsRNA":"DRSC06317","firefly reporter light, replicate 1":4008,"Renilla control light, replicate 1":1653}
{"gene":"CG7203","dsRNA":"DRSC03026","firefly reporter light, replicate 1":4547,"firefly reporter light, replicate 2":4629,"Renilla control light, replicate 1":1186,"Renilla control light, replicate 2":2649}
{"gene":"Mst33A","dsRNA":"DRSC03371","firefly reporter light, replicate 1":3256,"firefly reporter light, replicate 2":8640,"Renilla control light, replicate 1":826,"Renilla control light, replicate 2":4967}
{"gene":"CG3402","dsRNA":"DRSC08567","firefly reporter light, replicate 1":18305,"Renilla control light, replicate 1":5691}
{"gene":"GLS","dsRNA":"DRSC07261","firefly reporter light, replicate 1":13217,"Renilla control light, replicate 1":3629}
{"gene":"faf","dsRNA":"DRSC16942","firefly reporter light, replicate 1":18349,"Renilla control light, replicate 1":17906}
{"gene":"CG14135","dsRNA":"DRSC10140","firefly reporter light, replicate 1":6295,"Renilla control light, replicate 1":3761}
{"gene":"CG4408","dsRNA":"DRSC15574","firefly reporter light, replicate 1":2064,"firefly reporter light, replicate 2":4667,"Renilla control light, replicate 1":1060,"Renilla control light, replicate 2":1704}
{"gene":"CG12617","dsRNA":"DRSC02176","firefly reporter light, replicate 1":5475,"firefly reporter light, replicate 2":10786,"Renilla control light, replicate 1":784,"Renilla control light, replicate 2":2571}
{"gene":"Osi17","dsRNA":"DRSC12284","firefly reporter light, replicate 1":8598,"Renilla control light, replicate 1":1770}
{"gene":"PGS1","dsRNA":"DRSC16304","firefly reporter light, replicate 1":16417,"Renilla control light, replicate 1":3750}
{"gene":"CG7824","dsRNA":"DRSC16321","firefly reporter light, replicate 1":7840,"Renilla control light, replicate 1":2151}
